The record followed here is doi:10.1101/2023.11.02.565342.

Sequences of proteins named here, by UniProt entry; tags and fusion partners are left off. Residues count along the entry.
UniProt J3QMY9, 1-554, stated change not applied: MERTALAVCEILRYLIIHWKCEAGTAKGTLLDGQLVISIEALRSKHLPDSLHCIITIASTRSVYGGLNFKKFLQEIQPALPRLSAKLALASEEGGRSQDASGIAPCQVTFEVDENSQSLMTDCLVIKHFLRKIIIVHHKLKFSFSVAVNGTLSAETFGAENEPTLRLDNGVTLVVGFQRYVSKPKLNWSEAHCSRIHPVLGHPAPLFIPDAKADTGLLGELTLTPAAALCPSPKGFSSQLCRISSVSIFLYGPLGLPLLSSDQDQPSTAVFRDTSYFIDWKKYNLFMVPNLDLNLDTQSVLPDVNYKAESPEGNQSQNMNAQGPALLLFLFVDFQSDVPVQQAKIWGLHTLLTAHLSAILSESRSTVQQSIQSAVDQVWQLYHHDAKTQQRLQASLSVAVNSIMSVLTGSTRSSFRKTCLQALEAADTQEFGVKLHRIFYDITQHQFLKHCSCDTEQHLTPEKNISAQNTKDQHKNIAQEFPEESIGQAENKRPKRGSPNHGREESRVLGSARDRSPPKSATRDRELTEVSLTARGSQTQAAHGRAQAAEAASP

For at least one entry, the source does not settle the construct or the ends of the probe.

The target of the series is TOPOVIBLΔC25 blocked monomer (DTT/IAA treated) (Mus musculus) (UniProt J3QMY9). Description: native MS. The note with it: equimolar mix, 1:1 complex at 85,731 Da.

For the sequence “CTTTCCAGAAGCTACCACCATCATGTCTTCTACCACTGT (double strand) [2B39 dsDNA (native MS)]”, the binding result is recorded as “binds”.
